# Reference: PubChem BioAssay AID330 (DTP/NCI, 2004)
# The list does not hold the whole screen: it gathers tests that were run many times, whatever their T/C, doses with no T/C, and many T/C values between a quarter and a half above the control. Other doses and runs of a compound stand elsewhere. T/C is the treated group as % of the vehicle group. Some entries give survivors of the animals treated and no T/C: the source files T/C as zero there, which appears to mark a toxic dose or a test without result, not a measured value. Some doses without a T/C left all or most animals alive at the check, yet need not have been tolerated: survival well below the control is almost never listed, so the zero probably covers shortened survival too. Counts of survivors are from the toxicity check (mostly the fifth day) where no day follows; animals may have died later. Schedules are NCI's codes, read here as Q, the interval in days (D) or hours (H), X, the number of doses. Some entries hold several experiments; the values are given in rising order. Where survival is the endpoint, the PubChem record calls one and a half times the control and up active, and a quarter to a half above the control has no call in these data; cut-offs in other NCI protocols can differ. Some T/C values are followed by the survivors on the day toxicity was checked, most often the fifth; where none is given, no animal had died by that day.
# Tested on: P388 leukemia ip, CD2F1 mice, survival T/C
# Experiment: NCI In Vivo Anticancer Drug Screen. Data for tumor model P388 Leukemia (intraperitoneal) in CD2F1 (CDF1) mice
# Details: T/C endpoint: median survival time, higher T/C = longer survival
# [1] = dose: 25.0 mg/kg/injection, schedule: Q01DX005 (ip), vehicle: Klucel (hydroxypropylcellulose) (HPC)
# [2] = dose: 100.0 mg/kg/injection, schedule: Q01DX005 (ip), vehicle: Klucel (hydroxypropylcellulose) (HPC)
# [3] = dose: 400.0 mg/kg/injection, schedule: Q04DX003 (ip), vehicle: saline with Tween-80
# [4] = dose: 200.0 mg/kg/injection, schedule: Q01DX009 (ip), vehicle: Klucel (hydroxypropylcellulose) (HPC)
# [5] = dose: 25.0 mg/kg/injection, schedule: Q01DX005 (ip), vehicle: saline with Tween-80
# [6] = dose: 50.0 mg/kg/injection, schedule: Q01DX005 (ip), vehicle: saline with Tween-80
# [7] = dose: 100.0 mg/kg/injection, schedule: Q01DX005 (ip), vehicle: saline with Tween-80
# [8] = dose: 200.0 mg/kg/injection, schedule: Q01DX005 (ip), vehicle: saline with Tween-80
structure (smiles),measurement,setting,value
COc1ccc2ccc(/C=C/[N+](=O)[O-])cc2c1OC,T/C,"dose: 25.0 mg/kg/injection, schedule: Q01DX009 (ip), vehicle: other",130 % of control
same,survivor count,"dose: 50.0 mg/kg/injection, schedule: Q01DX009 (ip), vehicle: other",0 of 6 and 2 of 6
same,survivor count,"dose: 100.0 mg/kg/injection, schedule: Q01DX009 (ip), vehicle: other",1 of 6
same,survivor count,"dose: 200.0 mg/kg/injection, schedule: Q01DX009 (ip), vehicle: other",1 of 6
same,survivor count,"dose: 400.0 mg/kg/injection, schedule: Q01DX009 (ip), vehicle: other",0 of 6
O=C(Oc1ccccc1)c1cc2ccccc2cc1O,survivor count,"dose: 50.0 mg/kg/injection, schedule: Q01DX009 (ip), vehicle: saline",6 of 6
same,survivor count,"dose: 100.0 mg/kg/injection, schedule: Q01DX009 (ip), vehicle: saline",6 of 6
same,survivor count,"dose: 200.0 mg/kg/injection, schedule: Q01DX009 (ip), vehicle: saline",5 of 6
COc1ccc(CC(N)c2nn[nH]n2)cc1 (stereo not drawn),survivor count,"dose: 200.0 mg/kg/injection, schedule: Q01DX009 (ip), vehicle: saline with Tween-80",0 of 6
CC(C)(C)c1cc2c3c(c1)Oc1cc(C(C)(C)C)cc4c1C3(O)c1c(cc(C(C)(C)C)cc1O4)O2,survivor count,"dose: 3.12 mg/kg/injection, schedule: Q01DX005 (ip), vehicle: Klucel (hydroxypropylcellulose) (HPC)",6 of 6
same,T/C,[1],130 % of control
same,survivor count,[1],4 of 6
same,survivor count,"dose: 50.0 mg/kg/injection, schedule: Q01DX005 (ip), vehicle: Klucel (hydroxypropylcellulose) (HPC)",0 of 6
same,survivor count,[2],0 of 6
same,survivor count,"dose: 200.0 mg/kg/injection, schedule: Q01DX005 (ip), vehicle: Klucel (hydroxypropylcellulose) (HPC)",0 of 6
CCN(CC)CCCNc1nccc2c(OC)cccc12,survivor count,"dose: 100.0 mg/kg/injection, schedule: Q01DX005 (ip), vehicle: saline",4 of 5
same,survivor count,"dose: 200.0 mg/kg/injection, schedule: Q01DX005 (ip), vehicle: saline",0 of 5
[Cl][Cu][Cl].[O-][n+]1c2ccccc2nc2ccccc21,survivor count,"dose: 50.0 mg/kg/injection, schedule: Q04DX003 (ip), vehicle: saline with Tween-80",0 of 6
same,survivor count,"dose: 100.0 mg/kg/injection, schedule: Q04DX003 (ip), vehicle: saline with Tween-80",0 of 6
same,survivor count,"dose: 200.0 mg/kg/injection, schedule: Q04DX003 (ip), vehicle: saline with Tween-80",0 of 6
same,survivor count,[3],0 of 6
CC(C)c1ccc(C(CC(=O)C(C)(C)C)C(C(=O)O)c2ccc([N+](=O)[O-])cc2)cc1 (stereo not drawn),survivor count,[4],0 of 6
Cn1cc(C2=C(Cl)C(=O)N(c3cc(Cl)cc(Cl)c3)C2=O)c(=O)n(C)c1=O,survivor count,"dose: 60.0 mg/kg/injection, schedule: Q01DX005 (ip), vehicle: Klucel (hydroxypropylcellulose) (HPC)",2 of 6
same,survivor count,"dose: 120.0 mg/kg/injection, schedule: Q01DX005 (ip), vehicle: Klucel (hydroxypropylcellulose) (HPC)",3 of 6
same,survivor count,"dose: 240.0 mg/kg/injection, schedule: Q01DX005 (ip), vehicle: Klucel (hydroxypropylcellulose) (HPC)",4 of 6
Cc1ccc(/C=C/C(=O)C(CN(C)C)CN(C)C)cc1C,survivor count,[5],0 of 6
same,survivor count,[6],0 of 6
same,survivor count,[7],0 of 6
same,survivor count,[8],0 of 6
CC1=CC(C)(C)Nc2ccc(Cc3ccc4c(c3)C(C)=CC(C)(C)N4)cc21,T/C,"dose: 1920.0 mg/kg/injection, schedule: Q01DX001 (ip), vehicle: olive oil, sesame oil, peanut oil, evaluated on day 5",123 and 135 % of control
same,T/C,"dose: 1920.0 mg/kg/injection, schedule: Q01DX001 (ip), vehicle: olive oil, sesame oil, peanut oil, evaluated on day 10",104 [8 of 9 alive] and 109 % of control
same,T/C,"dose: 2400.0 mg/kg/injection, schedule: Q01DX001 (ip), vehicle: olive oil, sesame oil, peanut oil, evaluated on day 5",131 and 133 % of control
same,T/C,"dose: 2400.0 mg/kg/injection, schedule: Q01DX001 (ip), vehicle: olive oil, sesame oil, peanut oil, evaluated on day 10",105 [8 of 9 alive] and 112 % of control
same,T/C,"dose: 3000.0 mg/kg/injection, schedule: Q01DX001 (ip), vehicle: olive oil, sesame oil, peanut oil, evaluated on day 5",63 [4 of 7 alive] and 136 % of control
same,T/C,"dose: 3000.0 mg/kg/injection, schedule: Q01DX001 (ip), vehicle: olive oil, sesame oil, peanut oil, evaluated on day 10",95 [2 of 4 alive] and 113 % of control
same,T/C,"dose: 3000.0 mg/kg/injection, schedule: Q10HX001 (ip), vehicle: olive oil, sesame oil, peanut oil",131 % of control [4 of 7 alive]
CCC1(C2OC(C3OC(O)(CO)C(C)CC3C)CC2C)CCC(C2(C)CCC3(CC(O)C(C)C(C(C)C(OC)C(C)C(=O)O)O3)O2)O1 (stereo not drawn),survivor count,"dose: 12.5 mg/kg/injection, schedule: Q01DX005 (ip), vehicle: saline with Tween-80",2 of 5 and 3 of 6
same,survivor count,[5],0 of 5 and 1 of 6
same,survivor count,[6],0 of 5
same,survivor count,[7],0 of 5
same,survivor count,[8],0 of 5
Cc1ccc(N=CN(C)Sc2ccc(C(C)(C)C)cc2)c(C)c1,survivor count,[4],3 of 6
same,survivor count,"dose: 400.0 mg/kg/injection, schedule: Q01DX009 (ip), vehicle: Klucel (hydroxypropylcellulose) (HPC)",4 of 6
COC(=O)C(Cc1ccccc1)NCCNC(C)=O (stereo not drawn),survivor count,[3],2 of 6
CCC(C)CCC/C=C/CC(=O)NC(CC(=O)O)C(=O)NC(C(=O)NC(CC(=O)O)C(=O)NCC(=O)NC(CC(=O)O)C(=O)NCC(=O)NC(C(=O)NC(C(=O)N1CCCC1C(=O)NC(C)C1NC(=O)C2CCCCN2C1=O)C(C)C)C(C)N)C(C)C(=O)O (stereo not drawn),survivor count,"dose: 200.0 mg/kg/injection, schedule: Q01DX009 (ip), vehicle: saline + alcohol",6 of 6
same,survivor count,"dose: 400.0 mg/kg/injection, schedule: Q01DX009 (ip), vehicle: saline + alcohol",1 of 6
CC(O)C(O)C(O)C(O)C=O (stereo not drawn),T/C,"dose: 120.0 mg/kg/injection, schedule: Q01DX005 (ip), vehicle: saline",126 % of control
CC(C)OSc1ccccc1,T/C,"dose: 25.0 mg/kg/injection, schedule: Q01DX001 (ip), vehicle: Klucel (hydroxypropylcellulose) (HPC)",129 % of control
same,T/C,"dose: 50.0 mg/kg/injection, schedule: Q01DX001 (ip), vehicle: Klucel (hydroxypropylcellulose) (HPC)",125 % of control [5 of 6 alive]
same,survivor count,"dose: 200.0 mg/kg/injection, schedule: Q01DX001 (ip), vehicle: Klucel (hydroxypropylcellulose) (HPC)",1 of 6
same,survivor count,"dose: 400.0 mg/kg/injection, schedule: Q01DX001 (ip), vehicle: Klucel (hydroxypropylcellulose) (HPC)",0 of 6
CCCCCCCCCCCC1=C(O)C(=O)C(CC2=C(O)C(=O)C(CCCCCCCCCCC)=C(O)C2=O)=C(O)C1=O,survivor count,[2],6 of 6
COc1c(-c2ccc3c(c2)OCO3)oc2cc(O)cc(O)c2c1=O,survivor count,[6],5 of 5
